Measurements from publication PMC7819943, “Rice protein-binding microarrays: a tool to detect cis-acting elements near promoter regions in rice”.
This is one part of the list.

By UniProt entry, the sequences of proteins in these tests, tags left out.
UniProt Q0JBA9, entry or part of it: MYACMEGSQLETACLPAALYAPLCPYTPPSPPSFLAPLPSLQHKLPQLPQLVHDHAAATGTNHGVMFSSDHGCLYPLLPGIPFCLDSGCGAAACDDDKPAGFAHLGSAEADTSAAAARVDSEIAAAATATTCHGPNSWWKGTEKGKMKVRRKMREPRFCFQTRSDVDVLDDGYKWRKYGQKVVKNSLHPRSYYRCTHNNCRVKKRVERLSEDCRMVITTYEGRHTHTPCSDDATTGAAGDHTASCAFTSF

Each sequence was assayed against OsWRKY34 (Oryza sativa, UniProt Q0JBA9 1-250) (assay: protein-binding microarray (RPBM); PBS, 2% BSA, 51.3 ng/ul salmon testes DNA, 50 uM zinc acetate, 200 nM TF, 25 C, 1 h; high values mean tight binding). Conditions: protein: recombinant; tags: N-terminal polyhistidine and DsRed monomer fusion (pET32a); label: CyDye5-dUTP incorporated in the synthesized complementary strand; 3' TTTTT single-stranded linker to array surface; dsDNA, one strand shown.
Summary of the method: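 Ni–NTA purification followed expression in E. coli BL21-CodonPlus of transcription factors fused N-terminally to a polyhistidine tag and DsRed. At 200 nM in PBS with 2% BSA, salmon testes DNA and 50 µM zinc acetate, the protein was incubated for 1 h at 25 °C with a custom Agilent array that had been primer-extended with Cy5-dUTP and blocked with 2% BSA. After washing, the array was read on an Axon 4000B scanner. The binding signal is per-feature fluorescence intensity in arbitrary units.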

Row | Sequence | binding signal
1 | CGGCGAGAGGGGAATCAATCCTGAAGTGAGGGAGGGGAGGCGGAGTCACCTAGTGCAG | 8780 fluorescence intensity (a.u.)
2 | TCCCTTATTTTCTTGCGCAATCATTACCCACAACCTCAAACGGAGTCACCTAGTGCAG | 14300 fluorescence intensity (a.u.)
3 | CTCATCGAATCACAACCCTCCACCATTCACTTATACCTATCGGAGTCACCTAGTGCAG | 9320 fluorescence intensity (a.u.)
4 | TCTCTGATGGATAGGTGACATGGTGTGGTGTGCTTGTTTTCGGAGTCACCTAGTGCAG | 9500 fluorescence intensity (a.u.)
5 | TATAACCTTATCTTTTTCTTATACTTATGCTTATATTTATCGGAGTCACCTAGTGCAG | 8880 fluorescence intensity (a.u.)
6 | CCACCATTTTTAATTTTTTTTAGCTGATATGTGGGCCCATCGGAGTCACCTAGTGCAG | 8910 fluorescence intensity (a.u.)
7 | CACTCGTTTTCAGATCATTTTCCATGGCGCCATGGCGCCTCGGAGTCACCTAGTGCAG | 8500 fluorescence intensity (a.u.)
8 | ATCCGTATTTTTGTTCCTCCTTTCCTTTCTTTTTGGCAAACGGAGTCACCTAGTGCAG | 9580 fluorescence intensity (a.u.)
9 | CGTCCTAGCATTTTCTTACTAAATTCTTACTGATGTGTCACGGAGTCACCTAGTGCAG | 8180 fluorescence intensity (a.u.)
10 | GGCCTCTCAACTGACCCGTCTGCGAAATATGTTTATTTTCCGGAGTCACCTAGTGCAG | 8060 fluorescence intensity (a.u.)
11 | GTGCTAGTCTCCGCTGCCCCTTTCTCTTGGTCCAACTTACCGGAGTCACCTAGTGCAG | 10500 fluorescence intensity (a.u.)
12 | GTCCGCCTAAAGAAAAACACGCACACACTTCTTCTGCTTCCGGAGTCACCTAGTGCAG | 8770 fluorescence intensity (a.u.)
13 | GGTTATTGCAGCTGTTCTTGGTGTCTGGTGAGTGGTGAGTCGGAGTCACCTAGTGCAG | 11800 fluorescence intensity (a.u.)
14 | TTTTCTCACATGTTTGACCATTCGTCTTAATCAAAAAATTCGGAGTCACCTAGTGCAG | 8160 fluorescence intensity (a.u.)
15 | TAGGACGGTTAATTTCGTTGCTCTCCTCACTTCCCAACCGCGGAGTCACCTAGTGCAG | 8250 fluorescence intensity (a.u.)
16 | CTAATTTCTATTTTTACGTATACTCAATTAATATCCAATTCGGAGTCACCTAGTGCAG | 8100 fluorescence intensity (a.u.)
17 | CCTGCCCTGTTTTCTACTGTTTGGCACGCACATTTTCATGCGGAGTCACCTAGTGCAG | 8200 fluorescence intensity (a.u.)
18 | AGCTATTTTACACCACGGTTTATTTTCTAGACATTTACTTCGGAGTCACCTAGTGCAG | 9500 fluorescence intensity (a.u.)
19 | ATGTACGCACGAACCCATTGCAGATCGCGACACGTTTCCGCGGAGTCACCTAGTGCAG | 9670 fluorescence intensity (a.u.)
20 | GGAGGTTTGCTTGTTATGGTTCATGGTTCTTTTGATTAGTCGGAGTCACCTAGTGCAG | 8130 fluorescence intensity (a.u.)
21 | TTATTGATGGTCAAAGTTATTAAAGTTTGACCTCAAATTTCGGAGTCACCTAGTGCAG | 8400 fluorescence intensity (a.u.)

An excerpt of these results, in markdown.

| Row | Sequence | binding signal |
| --- | --- | --- |
| 19 | ATGTACGCACGAACCCATTGCAGATCGCGACACGTTTCCGCGGAGTCACCTAGTGCAG | 9670 fluorescence intensity (a.u.) |
| 20 | GGAGGTTTGCTTGTTATGGTTCATGGTTCTTTTGATTAGTCGGAGTCACCTAGTGCAG | 8130 fluorescence intensity (a.u.) |

Carrying on.

Row | Sequence | binding signal
22 | GGGCCCACCCATCACCCCTAACCTAACCGCCGTCGATTCACGGAGTCACCTAGTGCAG | 8850 fluorescence intensity (a.u.)
23 | GGCAACCCAACCCTCTGCTGCTACCTCCACCTAACCCAAACGGAGTCACCTAGTGCAG | 9180 fluorescence intensity (a.u.)
24 | GTGGGGTTTTCGATGGTGTTTCATTCTTTTTCTCAATGTACGGAGTCACCTAGTGCAG | 20300 fluorescence intensity (a.u.)
25 | CCGCACCTCTCTCTACACGCACGCGTCTCTCCCATCTCCCCGGAGTCACCTAGTGCAG | 9030 fluorescence intensity (a.u.)
26 | TATGTGCTAATTAACCGTTCCATTTTCCGTGGTGCACAGCCGGAGTCACCTAGTGCAG | 8730 fluorescence intensity (a.u.)
27 | ATTGGGACAAACGCCTTCACCTTCTCCATCTGGCTCACCACGGAGTCACCTAGTGCAG | 8150 fluorescence intensity (a.u.)
28 | TTTTGTTTCCGTAAGTTCTCCACCGGCTTCCCTCAATTTACGGAGTCACCTAGTGCAG | 9280 fluorescence intensity (a.u.)
29 | CTTGGCTCTTCATGGCCGCCGCTGCTGCCAACGACGCCGACGGAGTCACCTAGTGCAG | 9940 fluorescence intensity (a.u.)
30 | CAGACCACCCAACTCTACTTCTTCTTCTTCTTCTTCCATCCGGAGTCACCTAGTGCAG | 9280 fluorescence intensity (a.u.)
31 | TCACCTCGTTTTACGTATCTTCCCAATCTTCTCTATCTCACGGAGTCACCTAGTGCAG | 9140 fluorescence intensity (a.u.)
32 | GCCGCCGCCTCGCCTCCCGCACCGCCCTCGCCGCCGCCAACGGAGTCACCTAGTGCAG | 8840 fluorescence intensity (a.u.)
33 | TGGCCGGATGTGGTGTGCAGGGGAGACTCGTCCACCGGCGCGGAGTCACCTAGTGCAG | 8410 fluorescence intensity (a.u.)
34 | AGCTCGTGATTAGCAGATTGCATTTAGTGGGTGGGCTGTCCGGAGTCACCTAGTGCAG | 8410 fluorescence intensity (a.u.)
35 | TTCTTGTTGTCCATCTCCATCTCGTCATACACCTCCCAAGCGGAGTCACCTAGTGCAG | 10800 fluorescence intensity (a.u.)
36 | ACGATGACACCACCTTGCATATCCAGATGCCTCTGTTTGACGGAGTCACCTAGTGCAG | 9810 fluorescence intensity (a.u.)
37 | GCCTTGCTTTTCCTTGTCGAGATTACTCTAGCAATTTAATCGGAGTCACCTAGTGCAG | 9420 fluorescence intensity (a.u.)
38 | CCACGCGAGCGCTCGCGCCGCGCGAACCCAACCTTGCTCGCGGAGTCACCTAGTGCAG | 8250 fluorescence intensity (a.u.)
39 | TTCGACACCGGTAATCTTGCTACCTGTCTTTTTTTTTTATCGGAGTCACCTAGTGCAG | 11500 fluorescence intensity (a.u.)
40 | TGTCATTTTTGTTTCTCAATGTGTATATCAAATTTGTTAACGGAGTCACCTAGTGCAG | 8070 fluorescence intensity (a.u.)
41 | TATTTGTTTTGTTGTTGGCTTGTTATCCTCTATTACACTGCGGAGTCACCTAGTGCAG | 8890 fluorescence intensity (a.u.)
42 | CGTTCGTGTCGTGTGCACGCTGTTCGTATCCGTATCATATCGGAGTCACCTAGTGCAG | 10100 fluorescence intensity (a.u.)

Reformatted: entries from further up
Row,Sequence,binding signal
22,GGGCCCACCCATCACCCCTAACCTAACCGCCGTCGATTCACGGAGTCACCTAGTGCAG,8850 fluorescence intensity (a.u.)
23,GGCAACCCAACCCTCTGCTGCTACCTCCACCTAACCCAAACGGAGTCACCTAGTGCAG,9180 fluorescence intensity (a.u.)
